# Data reported in the supplement of paper PMC8728848.
# The other results are listed elsewhere or left out.
# B1: SUN4 (Saccharomyces cerevisiae), P53616 (protein)
# chain: MGSSHHHHHHSSGLVPRGSHNGSIYGDLADFSGPYEKFEDGTIPCGQFPSGQGVIPISWLDEGGWSGVENTDTSTGGSCKEGSYCSYACQPGMSKTQWPSDQPSDGRSIGGLLCKDGYLYRSNTDTDYLCEWGVDAAYVVSELSNDVAICRTDYPGTENMVIPTYVQAGDSLPLTVVDQDTYYTWQGLKTSAAYYVNNAGISVEDACVWGSSSSGVGNWAPLNFGAGSSDGVAYLSLIPNPNNGNALNFNVKIVAADDSSTVNGECIYENGSFSGGSDGCTVSVTAGKAKFVLYN
# What was measured:
# Test in all cases: glycan array binding signal (z-score within array); higher = stronger binding
# Details in all cases: glycan notation: IUPAC condensed, linker removed; mutation: Q318A
# [1] = target: Fuc(a1-2)Gal6S(b1-3)GlcNAc
# In short: (§1)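 The Consortium for Functional Glycomics database supplied 3228 glycan arrays, of which those lacking an available protein sequence were dropped. The binding signal, a within-array Z-score, was averaged across arrays of the same protein sequence and across linkers. Negative scores can be read as non-binding.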
# [2] = target: Fuc(a1-2)Gal6S(b1-3)GlcNAc6S
# In short: as §1
# [3] = target: Fuc(a1-2)Gal6S(b1-4)Glc
# In short: as §1
# [4] = target: Fuc(a1-2)Gal6S(b1-4)Glc6S
# In short: as §1
# [5] = target: Fuc(a1-2)[Gal(a1-3)]Gal
# In short: as §1
# [6] = target: Fuc(a1-2)[Gal(a1-3)]Gal(b1-3)GalNAc
# In short: as §1
# [7] = target: Fuc(a1-2)[Gal(a1-3)]Gal(b1-3)GalNAc(b1-3)Gal(a1-4)Gal(b1-4)Glc
# In short: as §1
# [8] = target: Fuc(a1-2)[Gal(a1-3)]Gal(b1-3)GlcNAc
# In short: as §1
# [9] = target: Fuc(a1-2)[Gal(a1-3)]Gal(b1-3)GlcNAc(b1-2)Man(a1-3)[Fuc(a1-2)[Gal(a1-3)]Gal(b1-3)GlcNAc(b1-2)Man(a1-6)]Man(b1-4)GlcNAc(b1-4)GlcNAc
# In short: as §1
# [10] = target: Fuc(a1-2)[Gal(a1-3)]Gal(b1-3)GlcNAc(b1-2)Man(a1-3)[Fuc(a1-2)[Gal(a1-3)]Gal(b1-3)GlcNAc(b1-2)Man(a1-6)]Man(b1-4)GlcNAc(b1-4)[Fuc(a1-6)]GlcNAc
# In short: as §1
# [11] = target: Fuc(a1-2)[Gal(a1-3)]Gal(b1-3)GlcNAc(b1-3)GalNAc
# In short: as §1
# [12] = target: Fuc(a1-2)[Gal(a1-3)]Gal(b1-3)GlcNAc(b1-6)GalNAc
# In short: as §1
# [13] = target: Fuc(a1-2)[Gal(a1-3)]Gal(b1-4)Glc
# In short: as §1
# [14] = target: Fuc(a1-2)[Gal(a1-3)]Gal(b1-4)GlcNAc
# In short: as §1
# [15] = target: Fuc(a1-2)[Gal(a1-3)]Gal(b1-4)GlcNAc(b1-2)Man
# In short: as §1
# [16] = target: Fuc(a1-2)[Gal(a1-3)]Gal(b1-4)GlcNAc(b1-2)Man(a1-3)[Fuc(a1-2)[Gal(a1-3)]Gal(b1-4)GlcNAc(b1-2)Man(a1-6)]Man(b1-4)GlcNAc(b1-4)GlcNAc
# In short: as §1
# [17] = target: Fuc(a1-2)[Gal(a1-3)]Gal(b1-4)GlcNAc(b1-2)Man(a1-3)[Fuc(a1-2)[Gal(a1-3)]Gal(b1-4)GlcNAc(b1-2)Man(a1-6)]Man(b1-4)GlcNAc(b1-4)[Fuc(a1-6)]GlcNAc
# In short: as §1
# [18] = target: Fuc(a1-2)[Gal(a1-3)]Gal(b1-4)GlcNAc(b1-3)GalNAc
# In short: as §1
# [19] = target: Fuc(a1-2)[Gal(a1-3)]Gal(b1-4)GlcNAc(b1-3)[Fuc(a1-2)[Gal(a1-3)]Gal(b1-4)GlcNAc(b1-6)]GalNAc
# In short: as §1
# [20] = target: Fuc(a1-2)[Gal(a1-3)]Gal(b1-4)GlcNAc(b1-6)GalNAc
# In short: as §1
# [21] = target: Fuc(a1-2)[Gal(a1-3)]Gal(b1-4)[Fuc(a1-3)]Glc
# In short: as §1
# [22] = target: Fuc(a1-2)[Gal(a1-3)]Gal(b1-4)[Fuc(a1-3)]GlcNAc
# In short: as §1
# [23] = target: Fuc(a1-2)[Gal(a1-3)]Gal(b1-4)[Fuc(a1-3)]GlcNAc(b1-3)GalNAc
# In short: as §1
# [24] = target: Fuc(a1-2)[Gal(a1-4)]Gal(b1-4)GlcNAc
# In short: as §1
# [25] = target: Fuc(a1-2)[GalNAc(a1-3)]Gal
# In short: as §1
# [26] = target: Fuc(a1-2)[GalNAc(a1-3)]Gal(b1-3)GalNAc(a1-3)[Fuc(a1-2)]Gal(b1-4)GlcNAc
# In short: as §1
# [27] = target: Fuc(a1-2)[GalNAc(a1-3)]Gal(b1-3)GalNAc(b1-3)Gal(a1-4)Gal(b1-4)Glc
# In short: as §1
# [28] = target: Fuc(a1-2)[GalNAc(a1-3)]Gal(b1-3)GlcNAc
# In short: as §1
# [29] = target: Fuc(a1-2)[GalNAc(a1-3)]Gal(b1-3)GlcNAc(b1-2)Man(a1-3)[Fuc(a1-2)[GalNAc(a1-3)]Gal(b1-3)GlcNAc(b1-2)Man(a1-6)]Man(b1-4)GlcNAc(b1-4)GlcNAc
# In short: as §1
# [30] = target: Fuc(a1-2)[GalNAc(a1-3)]Gal(b1-3)GlcNAc(b1-2)Man(a1-3)[Fuc(a1-2)[GalNAc(a1-3)]Gal(b1-3)GlcNAc(b1-2)Man(a1-6)]Man(b1-4)GlcNAc(b1-4)[Fuc(a1-6)]GlcNAc
# In short: as §1
# [31] = target: Fuc(a1-2)[GalNAc(a1-3)]Gal(b1-3)GlcNAc(b1-3)GalNAc
# In short: as §1
# [32] = target: Fuc(a1-2)[GalNAc(a1-3)]Gal(b1-3)GlcNAc(b1-6)GalNAc
# In short: as §1
# [33] = target: Fuc(a1-2)[GalNAc(a1-3)]Gal(b1-4)Glc
# In short: as §1
# [34] = target: Fuc(a1-2)[GalNAc(a1-3)]Gal(b1-4)GlcNAc
# In short: as §1
# [35] = target: Fuc(a1-2)[GalNAc(a1-3)]Gal(b1-4)GlcNAc(b1-2)Man
# In short: as §1
# [36] = target: Fuc(a1-2)[GalNAc(a1-3)]Gal(b1-4)GlcNAc(b1-2)Man(a1-3)[Fuc(a1-2)[GalNAc(a1-3)]Gal(b1-4)GlcNAc(b1-2)Man(a1-6)]Man(b1-4)GlcNAc(b1-4)GlcNAc
# In short: as §1
# [37] = target: Fuc(a1-2)[GalNAc(a1-3)]Gal(b1-4)GlcNAc(b1-2)Man(a1-3)[Fuc(a1-2)[GalNAc(a1-3)]Gal(b1-4)GlcNAc(b1-2)Man(a1-6)]Man(b1-4)GlcNAc(b1-4)[Fuc(a1-6)]GlcNAc
# In short: as §1
# [38] = target: Fuc(a1-2)[GalNAc(a1-3)]Gal(b1-4)GlcNAc(b1-3)Gal(b1-4)GlcNAc
# In short: as §1
# [39] = target: Fuc(a1-2)[GalNAc(a1-3)]Gal(b1-4)GlcNAc(b1-3)Gal(b1-4)GlcNAc(b1-3)Gal(b1-4)GlcNAc
# In short: as §1
# [40] = target: Fuc(a1-2)[GalNAc(a1-3)]Gal(b1-4)GlcNAc(b1-3)GalNAc
# In short: as §1
# [41] = target: Fuc(a1-2)[GalNAc(a1-3)]Gal(b1-4)GlcNAc(b1-3)[Fuc(a1-2)[GalNAc(a1-3)]Gal(b1-4)GlcNAc(b1-6)]GalNAc
# In short: as §1
# [42] = target: Fuc(a1-2)[GalNAc(a1-3)]Gal(b1-4)GlcNAc(b1-6)GalNAc
# In short: as §1
# [43] = target: Fuc(a1-2)[GalNAc(a1-3)]Gal(b1-4)[Fuc(a1-3)]GlcNAc
# In short: as §1
# [44] = target: Fuc(a1-2)[GalNAc(a1-3)]Gal(b1-4)[Fuc(a1-3)]GlcNAc(b1-3)GalNAc
# In short: as §1
# [45] = target: Fuc(a1-2)[GalNAc(a1-4)]Gal(b1-4)GlcNAc
# In short: as §1
binder,measurement,setting,value
B1,glycan array binding signal (z-score),[1],0.375
same,glycan array binding signal (z-score),[2],-0.342
same,glycan array binding signal (z-score),[3],-0.627
same,glycan array binding signal (z-score),[4],0.386
same,glycan array binding signal (z-score),[5],-0.551
same,glycan array binding signal (z-score),[6],-0.213
same,glycan array binding signal (z-score),[7],1.13
same,glycan array binding signal (z-score),[8],-0.361
same,glycan array binding signal (z-score),[9],0.04
same,glycan array binding signal (z-score),[10],-0.384
same,glycan array binding signal (z-score),[11],-0.057
same,glycan array binding signal (z-score),[12],-0.909
same,glycan array binding signal (z-score),[13],-0.159
same,glycan array binding signal (z-score),[14],-0.125
same,glycan array binding signal (z-score),[15],-0.987
same,glycan array binding signal (z-score),[16],-0.077
same,glycan array binding signal (z-score),[17],-0.11
same,glycan array binding signal (z-score),[18],-0.334
same,glycan array binding signal (z-score),[19],0.654
same,glycan array binding signal (z-score),[20],0.123
same,glycan array binding signal (z-score),[21],0.315
same,glycan array binding signal (z-score),[22],0.706
same,glycan array binding signal (z-score),[23],-0.261
same,glycan array binding signal (z-score),[24],0.015
same,glycan array binding signal (z-score),[25],-0.277
same,glycan array binding signal (z-score),[26],-1.05
same,glycan array binding signal (z-score),[27],1.33
same,glycan array binding signal (z-score),[28],0.186
same,glycan array binding signal (z-score),[29],1.1
same,glycan array binding signal (z-score),[30],0.048
same,glycan array binding signal (z-score),[31],1.37
same,glycan array binding signal (z-score),[32],-1.18
same,glycan array binding signal (z-score),[33],-0.617
same,glycan array binding signal (z-score),[34],-0.844
same,glycan array binding signal (z-score),[35],-0.198
same,glycan array binding signal (z-score),[36],0.618
same,glycan array binding signal (z-score),[37],-0.177
same,glycan array binding signal (z-score),[38],0.152
same,glycan array binding signal (z-score),[39],0.884
same,glycan array binding signal (z-score),[40],0.641
same,glycan array binding signal (z-score),[41],-0.974
same,glycan array binding signal (z-score),[42],0.511
same,glycan array binding signal (z-score),[43],0.234
same,glycan array binding signal (z-score),[44],0.567
same,glycan array binding signal (z-score),[45],-0.125

# 2 entries drawn at random from those above:
binder,measurement,setting,value
B1,glycan array binding signal (z-score),[45],-0.125
same,glycan array binding signal (z-score),[5],-0.551
